Reference: PubChem BioAssay AID652054 (National Center for Advancing Translational Sciences (NCATS), 2013)
Screen size: about 360,000 compounds; about 9,100 (2.5%) were called active. This list was built around the results that the source calls inconclusive (neither active nor inactive); the mix of calls is not that of the screen. Rule as the data show it: active = max response below about -50%; inconclusive = no clear call, values can overlap the other calls; inactive = above that.

By UniProt entry, the sequences of proteins in these tests, tags left out.
UniProt P35462, whole entry, looked up: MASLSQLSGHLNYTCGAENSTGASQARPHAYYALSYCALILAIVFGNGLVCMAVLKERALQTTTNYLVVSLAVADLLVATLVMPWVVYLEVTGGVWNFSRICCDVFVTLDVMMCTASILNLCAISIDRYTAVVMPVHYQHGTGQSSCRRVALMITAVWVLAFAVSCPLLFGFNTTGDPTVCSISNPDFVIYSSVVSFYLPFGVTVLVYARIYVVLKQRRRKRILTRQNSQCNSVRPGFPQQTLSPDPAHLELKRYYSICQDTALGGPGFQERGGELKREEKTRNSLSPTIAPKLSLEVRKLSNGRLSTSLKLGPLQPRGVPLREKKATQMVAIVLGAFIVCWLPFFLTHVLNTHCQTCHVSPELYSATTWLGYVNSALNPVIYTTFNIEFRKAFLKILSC

target: D(3) dopamine receptor (Homo sapiens) (UniProt P35462); test: qHTS of D3 Dopamine Receptor Antagonist: qHTS; settings: D3R cells, DiscoveRx beta-arrestin luminescence, antagonist mode; stronger effect = lower value
Outline: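 Cells plated overnight at 1500 cells/well, then exposed to library compounds with dopamine controls for 90 minutes at 37 degrees C. DiscoveRx reagent added for 30–60 minutes at room temperature; luminescence read, quantitative HTS format.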
% is scaled to controls: 0 for no effect and ±100 for the full control effect.

Structure (SMILES)	max response, negative = inhibition
N#C/C(=C/Nc1ccccc1)c1ccsc1	inconclusive: -44%
O=[N+]([O-])c1ccc(CN2CCC(Cc3ccccc3)CC2)cc1	inconclusive: -38.4%
Cc1cnc(NC(=O)c2ccc3c(c2)OCCO3)s1	inactive: -12.3%
CCn1c(NC2CCCCC2)nc2ccccc21	inconclusive: -46%
COc1cc(/C=N/NC(=O)COc2cccc(F)c2)ccc1OS(=O)(=O)c1ccc(C)cc1	active: -53.3%
O=C(CSc1nnnn1-c1ccc(F)cc1)Nc1ccccc1F	inconclusive: -30.9%
Cc1ccnc(NC(=S)NC(=O)c2ccco2)c1	inactive: 3.92%
Nc1nc(N2CCOCC2)nc(N(c2ccccc2)c2ccccc2)n1	inconclusive: -34.3%
Cc1nn(C)c(C(=O)NCc2ccc(Cl)cc2)c1Cl	inactive: 11%
CC(NS(C)(=O)=O)C(c1cccs1)N1CCN(Cc2ccccc2)CC1 (stereo unspecified)	inconclusive: -31.7%
O=Nc1nc2ncccn2c1-c1ccccc1	active: -56.9%
C=CCn1c(-c2cccn(Cc3ccccc3)c2=O)n[nH]c1=S	inconclusive: -34.3%
COC(=O)C1=C(N)Oc2cc(C)n(CC3CCCO3)c(=O)c2C1c1ccc(Cl)c(Cl)c1 (stereo unspecified)	inactive: -17.9%
Cc1cc(F)ccc1-c1cc(C(=O)Nc2ccccc2)[nH]n1	active: -84.5%
CCOC(=O)C(CC)(CC)C(=O)/C=C/c1ccc(Br)cc1	inconclusive: -35.8%
O=C(N/N=C/C(Br)=C/c1ccccc1)NC1CCCCC1	inactive: 1.39%
Cc1csc(SCC(=O)c2ccc(S(=O)(=O)N3CCOCC3)cc2)n1	inconclusive: -43.7%
CC1CCC(C(=O)NC(C(=O)NCCN2CCC(C)CC2)C(C)C)CC1 (stereo unspecified)	inconclusive: -42.5%
CCc1ccc(S(=O)(=O)N/N=C\c2cn(CC(N)=O)c3ccccc23)cc1	inactive: -0.783%
CCCC(=O)Nc1ccc(NC(=S)NC(=O)c2ccccc2[N+](=O)[O-])cc1	inconclusive: -44.2%
N#CCC(=O)Nc1ccc(C(=O)NNC(=S)NC2CCCCC2)cc1	inconclusive: -36.7%
CC1=C/C(=C(/c2cc(C)c(O)c(Br)c2)c2ccccc2S(=O)(=O)O)C=C(Br)C1=O	active: -59.6%
Cc1ccc(CN2CCN(c3ncccn3)CC2)o1	active: -54.4%
O=[N+]([O-])c1cccc(-c2ccc(CN3CCN(c4ccccc4)CC3)o2)c1	inconclusive: -49.6%
COc1cc(CN(C)CC2CCCN(CCc3cccc(C(F)(F)F)c3)C2)ccc1O (stereo unspecified)	inconclusive: -35%
COC(=O)c1ccc(CN=C(NS(=O)(=O)c2ccccc2)c2ccccc2)cc1	inactive: 4.55%

Shown as comma-separated lines: entries from further up
Structure (SMILES),"max response, negative = inhibition"
N#C/C(=C/Nc1ccccc1)c1ccsc1,inconclusive: -44%
O=[N+]([O-])c1ccc(CN2CCC(Cc3ccccc3)CC2)cc1,inconclusive: -38.4%
